Experimental findings from paper PMC8298264, “Function of cofactor Akirin2 in the regulation of gene expression in model human neutrophil-like HL60 cells” (Bioscience Reports, 2021) are described below.

The chains behind the UniProt entries cited, without tags or fusion partners.
UniProt Q53H80: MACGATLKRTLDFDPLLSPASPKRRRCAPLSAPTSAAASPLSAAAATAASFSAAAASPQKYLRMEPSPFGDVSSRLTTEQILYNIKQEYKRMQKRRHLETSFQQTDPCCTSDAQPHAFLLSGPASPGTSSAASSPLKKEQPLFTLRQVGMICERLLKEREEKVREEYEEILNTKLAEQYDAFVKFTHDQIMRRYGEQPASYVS

The experiment concerns the target Human recombinant Akirin2 produced in human kidney HEK293T cells, COOH-(Myc-DDK)-tagged (human) (UniProt Q53H80). Briefly: pull-down; Myc-DDK-tagged recAkirin2 on c-Myc magnetic beads, incubated with 200 or 400 µg of HL60 protein lysate for 2 h at RT; eluates tested by dot blot with antibodies specific for each protein; dot areas compared with SNRNP70; only the target purified.

These are yes or no findings as the source states them, for the method shown. In cells and extracts the contact can be indirect. Some binding calls cover weakened binding; strength is not graded here.

B1: mediator of RNA polymerase II transcription subunit 16 (protein, UniProt Q9Y2X0 1-877)
chain: MCDLRRPAAGGMMDLAYVCEWEKWSKSTHCPSVPLACAWSCRNLIAFTMDLRSDDQDLTRMIHILDTEHPWDLHSIPSEHHEAITCLEWDQSGSRLLSADADGQIKCWSMADHLANSWESSVGSLVEGDPIVALSWLHNGVKLALHVEKSGASSFGEKFSRVKFSPSLTLFGGKPMEGWIAVTVSGLVTVSLLKPSGQVLTSTESLCRLRGRVALADIAFTGGGNIVVATADGSSASPVQFYKVCVSVVSEKCRIDTEILPSLFMRCTTDLNRKDKFPAITHLKFLARDMSEQVLLCASSQTSSIVECWSLRKEGLPVNNIFQQISPVVGDKQPTILKWRILSATNDLDRVSAVALPKLPISLTNTDLKVASDTQFYPGLGLALAFHDGSVHIVHRLSLQTMAVFYSSAAPRPVDEPAMKRPRTAGPAVHLKAMQLSWTSLALVGIDSHGKLSVLRLSPSMGHPLEVGLALRHLLFLLEYCMVTGYDWWDILLHVQPSMVQSLVEKLHEEYTRQTAALQQVLSTRILAMKASLCKLSPCTVTRVCDYHTKLFLIAISSTLKSLLRPHFLNTPDKSPGDRLTEICTKITDVDIDKVMINLKTEEFVLDMNTLQALQQLLQWVGDFVLYLLASLPNQGSLLRPGHSFLRDGTSLGMLRELMVVIRIWGLLKPSCLPVYTATSDTQDSMSLLFRLLTKLWICCRDEGPASEPDEALVDECCLLPSQLLIPSLDWLPASDGLVSRLQPKQPLRLQFGRAPTLPGSAATLQLDGLARAPGQPKIDHLRRLHLGACPTEECKACTRCGCVTMLKSPNRTTAVKQWEQRWIKNCLAVEGRGPDACVTSRASEEAPAFVQLGPQSTHHSPRTPRSLDHLHPEDRP
Regarding B1, the binding result is given as “binds”.

B2: phosphatidylinositol transfer protein-α isoform (protein, UniProt Q00169 1-270)
chain: MVLLKEYRVILPVSVDEYQVGQLYSVAEASKNETGGGEGVEVLVNEPYEKDGEKGQYTHKIYHLQSKVPTFVRMLAPEGALNIHEKAWNAYPYCRTVITNEYMKEDFLIKIETWHKPDLGTQENVHKLEPEAWKHVEAVYIDIADRSQVLSKDYKAEEDPAKFKSIKTGRGPLGPNWKQELVNQKDCPYMCAYKLVTVKFKWWGLQNKVENFIHKQERRLFTNFHRQLFCWLDKWVDLTMDDIRRMEEETKRQLDEMRQKDPVKGMTADD
Turning to B2, the binding entry was “binds”.

B3: protein Wnt-2 (protein, UniProt P09544 26-360)
chain: SWWYMRATGGSSRVMCDNVPGLVSSQRQLCHRHPDVMRAISQGVAEWTAECQHQFRQHRWNCNTLDRDHSLFGRVLLRSSRESAFVYAISSAGVVFAITRACSQGEVKSCSCDPKKMGSAKDSKGIFDWGGCSDNIDYGIKFARAFVDAKERKGKDARALMNLHNNRAGRKAVKRFLKQECKCHGVSGSCTLRTCWLAMADFRKTGDYLWRKYNGAIQVVMNQDGTGFTVANERFKKPTKNDLVYFENSPDYCIRDREAGSLGTAGRVCNLTSRGMDSCEVMCCGRGYDTSHVTRMTKCGCKFHWCCAVRCQDCLEALDVHTCKAPKNADWTTAT
As for B3, the binding entry is reported as “binds”.
